Assay results taken from PMC10761869 (Nature Communications, 2024).
Residue numbers refer to the chain shown, from its start. Names and notes keep the numbering of the source. These are yes or no findings as the source states them, for the method shown. Some binding calls cover weakened binding; strength is not graded here. Where a sequence is shown, tags or fusion partners need not be part of it.

Chains of the proteins cited; added tags and fusions are not shown.
UniProt P25491: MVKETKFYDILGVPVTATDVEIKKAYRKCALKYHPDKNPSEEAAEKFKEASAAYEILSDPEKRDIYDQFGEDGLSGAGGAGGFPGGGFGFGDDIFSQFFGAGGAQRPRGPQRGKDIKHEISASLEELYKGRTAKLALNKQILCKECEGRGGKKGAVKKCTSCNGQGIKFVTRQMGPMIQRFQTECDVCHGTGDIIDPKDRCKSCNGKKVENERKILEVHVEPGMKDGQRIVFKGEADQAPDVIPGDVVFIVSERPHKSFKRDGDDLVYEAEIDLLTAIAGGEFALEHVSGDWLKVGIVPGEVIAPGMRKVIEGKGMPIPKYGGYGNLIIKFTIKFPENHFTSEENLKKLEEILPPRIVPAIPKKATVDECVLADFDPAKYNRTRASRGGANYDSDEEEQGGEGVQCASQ
UniProt P10591: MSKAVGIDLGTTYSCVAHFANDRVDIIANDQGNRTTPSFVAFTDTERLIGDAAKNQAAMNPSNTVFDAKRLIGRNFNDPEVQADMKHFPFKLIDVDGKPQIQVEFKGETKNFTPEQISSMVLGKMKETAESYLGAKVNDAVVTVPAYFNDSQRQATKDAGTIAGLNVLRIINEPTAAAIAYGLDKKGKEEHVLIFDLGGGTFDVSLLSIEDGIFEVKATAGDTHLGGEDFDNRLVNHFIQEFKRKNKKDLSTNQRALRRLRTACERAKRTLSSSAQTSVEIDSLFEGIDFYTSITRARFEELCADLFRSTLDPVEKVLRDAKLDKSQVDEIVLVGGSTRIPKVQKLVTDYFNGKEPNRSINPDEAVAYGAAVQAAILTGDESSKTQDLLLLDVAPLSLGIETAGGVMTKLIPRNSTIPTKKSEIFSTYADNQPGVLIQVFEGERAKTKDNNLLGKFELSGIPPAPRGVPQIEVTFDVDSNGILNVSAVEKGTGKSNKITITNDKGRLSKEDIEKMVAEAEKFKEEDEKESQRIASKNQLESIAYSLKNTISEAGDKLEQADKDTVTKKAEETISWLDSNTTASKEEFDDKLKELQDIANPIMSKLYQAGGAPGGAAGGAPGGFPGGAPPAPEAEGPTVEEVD

Legend:
[1] = biological target: T1, His6-tagged wildtype Sgt2 (S. cerevisiae (printed as ScSgt2)) (UniProt Q12118); experiment: pull-down; 0.6 µM His6-Sgt2 added for 1 min to a preformed Ssa1-TA complex (0.3 µM TA, 3 µM Ssa1, 2 mM ATP, with or without 3 µM Ydj1) in GET buffer; captured on Talon resin at 4 °C, washed with GET buffer + 5 mM imidazole, eluted with 300 mM imidazole; silver stain and anti-Strep western blot; both purified
T1 sequence: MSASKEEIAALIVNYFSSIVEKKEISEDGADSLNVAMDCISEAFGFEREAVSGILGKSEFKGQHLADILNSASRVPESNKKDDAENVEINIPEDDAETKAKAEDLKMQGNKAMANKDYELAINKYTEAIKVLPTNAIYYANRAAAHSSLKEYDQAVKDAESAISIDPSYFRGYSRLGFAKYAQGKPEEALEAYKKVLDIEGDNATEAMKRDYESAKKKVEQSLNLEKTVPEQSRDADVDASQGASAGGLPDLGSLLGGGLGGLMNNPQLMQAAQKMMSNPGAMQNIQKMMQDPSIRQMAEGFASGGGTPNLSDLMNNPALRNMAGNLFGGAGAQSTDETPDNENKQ

[2] = biological target: T2, His6-Sgt2 (wildtype Sgt2) (UniProt Q12118); experiment: condition: only high salt wash (GET buffer with 500 mM NaCl); pull-down; as a4, but resin washed with 100 column volumes of GET buffer with 500 mM NaCl (high salt wash); both purified
T2 sequence: T1 sequence

[3] = biological target: T2, His6-Sgt2 (wildtype Sgt2); experiment: pull-down; TA (0.3 µM) loaded on 3 µM Ssa1 with 2 mM ATP, with or without 3 µM Ydj1, then 0.6 µM His6-Sgt2; Talon resin, GET buffer (150 mM KOAc) with 5 mM imidazole wash; both purified
[4] = biological target: His-Sgt2 Q242C (S. cerevisiae (printed as ScSgt2)) (UniProt Q12118); experiment: cross-linking; thiol crosslinker BMH: 0.3 µM His-Sgt2 (0.5 µM in Supplementary Figure 7a) with 0.5 or 1 mM BMH at room temperature for 1 h; anti-His western blot, or Coomassie staining and fluoroscan at 635 nm; intradimer crosslink; both purified
[5] = biological target: His6-Sgt2-G258C (S. cerevisiae (printed as ScSgt2)) (UniProt Q12118); experiment: cross-linking; purified Sgt2-C258-TA complex (TA translated in S30 lysate with His6-Sgt2-G258C, purified via the His6-tag, 1 mM TCEP) incubated with 1 mM BMH at RT; anti-His western blot; both purified
[6] = biological target: His6-Sgt2-G258C (S. cerevisiae (printed as ScSgt2)) (UniProt Q12118); experiment: cross-linking; thiol crosslinker BMH: 0.3 µM His-Sgt2 (0.5 µM in Supplementary Figure 7a) with 0.5 or 1 mM BMH at room temperature for 1 h; anti-His western blot, or Coomassie staining and fluoroscan at 635 nm; intradimer crosslink; both purified
[7] = biological target: His-Sgt2 G306C (S. cerevisiae (printed as ScSgt2)) (UniProt Q12118); experiment: as above
[8] = biological target: His-Sgt2 S335C (S. cerevisiae (printed as ScSgt2)) (UniProt Q12118); experiment: as above
[9] = biological target: His-Sgt2 Q346C (S. cerevisiae (printed as ScSgt2)) (UniProt Q12118); experiment: as above

Ydj1 (from UniProt P25491 1-409)
binding [1]: no binding (tested: 3 µM Ydj1)

Ssa1 (tagless) (from UniProt P10591 1-642)
binding [2]: no binding

Ydj1 (tagless) (from UniProt P25491 1-409)
binding [3]: no binding (tested: 3 µM Ydj1)

B1: His-Sgt2 Q242C (protein, UniProt Q12118 1-346)
chain: T1 sequence with Q242C
binding [4]: binds

B2: His6-Sgt2-G258C (protein, UniProt Q12118 1-346)
chain: T1 sequence with G258C
binding [5]: binds | binding [6]: binds

B3: His-Sgt2 G306C (protein, UniProt Q12118 1-346)
chain: T1 sequence with G306C
binding [7]: binds

B4: His-Sgt2 S335C (protein, UniProt Q12118 1-346)
chain: T1 sequence with S335C
binding [8]: binds

B5: His-Sgt2 Q346C (protein, UniProt Q12118 1-346)
chain: T1 sequence with Q346C
binding [9]: binds
